According to US20110195432A1, “METHODS FOR THE SELECTION OF THERAPEUTIC TREATMENTS FOR CANCER” (priority 2008, published 2011):
Results are given in words; binding and its absence hold for the method and conditions named. In cells and extracts the contact can be indirect. Some binding calls cover weakened binding; strength is not graded here.

Sequences of proteins named here, by UniProt entry; tags and fusion partners are left off.
UniProt P10275: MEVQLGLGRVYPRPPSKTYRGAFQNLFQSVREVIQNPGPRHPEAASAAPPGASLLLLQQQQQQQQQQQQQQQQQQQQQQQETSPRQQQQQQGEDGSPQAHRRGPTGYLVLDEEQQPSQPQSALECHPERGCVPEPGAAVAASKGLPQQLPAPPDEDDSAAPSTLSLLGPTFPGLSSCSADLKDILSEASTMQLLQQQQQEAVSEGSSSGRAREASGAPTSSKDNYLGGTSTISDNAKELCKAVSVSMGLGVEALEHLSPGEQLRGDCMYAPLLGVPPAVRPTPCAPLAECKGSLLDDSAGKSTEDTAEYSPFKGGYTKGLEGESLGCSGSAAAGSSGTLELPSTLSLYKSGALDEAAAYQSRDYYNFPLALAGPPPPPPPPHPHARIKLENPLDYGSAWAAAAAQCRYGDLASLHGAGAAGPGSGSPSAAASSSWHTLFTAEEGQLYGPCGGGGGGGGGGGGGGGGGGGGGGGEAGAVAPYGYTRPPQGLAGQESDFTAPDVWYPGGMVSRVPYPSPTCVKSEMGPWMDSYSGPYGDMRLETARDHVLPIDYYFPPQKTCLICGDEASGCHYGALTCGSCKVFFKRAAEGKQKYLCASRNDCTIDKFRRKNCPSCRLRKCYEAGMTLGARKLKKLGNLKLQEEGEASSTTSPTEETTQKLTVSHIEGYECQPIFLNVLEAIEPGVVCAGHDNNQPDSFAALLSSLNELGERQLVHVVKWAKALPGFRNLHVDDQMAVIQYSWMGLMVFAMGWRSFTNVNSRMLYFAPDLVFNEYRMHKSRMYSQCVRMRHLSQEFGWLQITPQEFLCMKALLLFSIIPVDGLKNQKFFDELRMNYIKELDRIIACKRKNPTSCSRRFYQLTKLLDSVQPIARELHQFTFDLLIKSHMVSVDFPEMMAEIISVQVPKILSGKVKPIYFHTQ

Assays:
Androgen receptor (AR) [1] = target: Androgen receptor (AR) (UniProt P10275); assay: co-immunoprecipitation with antibodies to HSP90, AR, acetylated lysine and IgG, Western blot for AR (FIG. 1C legend)
Androgen receptor (AR) [2] = target: Androgen receptor (AR) (UniProt P10275); assay: co-immunoprecipitation with anti-HSP90 antibody and Western blot for AR, LNCaP cell lysates, vehicle versus 20 uM sulforaphane for 4 h
Androgen receptor (AR) [3] = target: Androgen receptor (AR) (UniProt P10275); assay: co-immunoprecipitation and Western blot, LNCaP cell lysates, vehicle versus sulforaphane

binding (Androgen receptor (AR) [1]): binds
binding (Androgen receptor (AR) [2]): binds
binding (Androgen receptor (AR) [3]): binds
Substance: Heat shock protein 90 (HSP90) (from UniProt P07900 2-732)
